Test results: the supplement of paper PMC10849652
The other results are listed elsewhere or left out.

Amino acid sequences for entries named in this document (tags omitted). A change or cut given only in a name is not applied to a line headed by its entry.
UniProt Q6NXT1: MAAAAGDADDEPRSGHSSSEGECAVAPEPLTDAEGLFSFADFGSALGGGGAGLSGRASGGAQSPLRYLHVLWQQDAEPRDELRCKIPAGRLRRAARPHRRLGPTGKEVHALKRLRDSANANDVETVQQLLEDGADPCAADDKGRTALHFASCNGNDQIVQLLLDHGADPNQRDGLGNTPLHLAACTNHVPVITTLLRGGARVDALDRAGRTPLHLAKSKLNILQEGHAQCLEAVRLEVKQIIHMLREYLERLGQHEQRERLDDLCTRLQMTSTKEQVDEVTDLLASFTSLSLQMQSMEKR
UniProt P31751: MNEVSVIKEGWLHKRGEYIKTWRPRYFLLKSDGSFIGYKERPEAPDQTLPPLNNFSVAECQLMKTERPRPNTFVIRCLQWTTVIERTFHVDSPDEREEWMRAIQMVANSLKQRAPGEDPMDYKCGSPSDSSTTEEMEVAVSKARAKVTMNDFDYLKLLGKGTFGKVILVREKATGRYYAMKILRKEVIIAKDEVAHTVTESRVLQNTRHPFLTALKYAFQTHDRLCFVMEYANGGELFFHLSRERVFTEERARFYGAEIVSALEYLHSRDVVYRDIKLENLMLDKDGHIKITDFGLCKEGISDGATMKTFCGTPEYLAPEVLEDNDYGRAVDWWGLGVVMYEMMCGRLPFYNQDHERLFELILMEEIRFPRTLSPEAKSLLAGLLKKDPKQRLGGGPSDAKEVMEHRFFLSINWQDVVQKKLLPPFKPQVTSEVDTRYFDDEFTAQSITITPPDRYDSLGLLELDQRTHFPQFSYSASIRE
UniProt Q92625: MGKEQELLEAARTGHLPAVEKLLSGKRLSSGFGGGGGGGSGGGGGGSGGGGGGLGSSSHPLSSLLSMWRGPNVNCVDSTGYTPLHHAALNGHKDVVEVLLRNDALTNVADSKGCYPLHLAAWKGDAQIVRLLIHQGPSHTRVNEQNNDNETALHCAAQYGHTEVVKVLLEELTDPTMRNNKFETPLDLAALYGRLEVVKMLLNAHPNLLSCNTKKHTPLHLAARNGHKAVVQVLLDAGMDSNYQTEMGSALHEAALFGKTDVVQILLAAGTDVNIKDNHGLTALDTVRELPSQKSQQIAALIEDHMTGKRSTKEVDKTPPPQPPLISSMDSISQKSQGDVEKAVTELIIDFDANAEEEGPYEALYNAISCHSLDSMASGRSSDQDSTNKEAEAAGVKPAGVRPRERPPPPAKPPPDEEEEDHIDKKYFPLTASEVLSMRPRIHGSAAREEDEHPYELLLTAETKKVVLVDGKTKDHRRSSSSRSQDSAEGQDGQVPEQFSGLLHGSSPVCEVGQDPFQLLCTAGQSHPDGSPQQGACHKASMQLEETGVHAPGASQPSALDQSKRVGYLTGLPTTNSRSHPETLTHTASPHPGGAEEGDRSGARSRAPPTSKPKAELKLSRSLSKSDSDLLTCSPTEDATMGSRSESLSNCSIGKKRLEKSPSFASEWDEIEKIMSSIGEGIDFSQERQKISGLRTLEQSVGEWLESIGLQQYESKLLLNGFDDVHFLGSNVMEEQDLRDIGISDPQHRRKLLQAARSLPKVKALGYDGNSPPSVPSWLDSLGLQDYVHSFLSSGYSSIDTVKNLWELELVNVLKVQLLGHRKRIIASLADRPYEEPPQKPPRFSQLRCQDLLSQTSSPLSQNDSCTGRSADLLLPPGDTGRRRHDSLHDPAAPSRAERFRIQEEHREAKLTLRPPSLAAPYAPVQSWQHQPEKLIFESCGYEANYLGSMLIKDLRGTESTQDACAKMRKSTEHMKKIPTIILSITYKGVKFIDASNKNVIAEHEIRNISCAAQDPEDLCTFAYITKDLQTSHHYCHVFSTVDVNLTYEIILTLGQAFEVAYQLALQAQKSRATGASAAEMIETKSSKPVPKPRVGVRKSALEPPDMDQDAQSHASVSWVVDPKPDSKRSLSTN
UniProt P51649: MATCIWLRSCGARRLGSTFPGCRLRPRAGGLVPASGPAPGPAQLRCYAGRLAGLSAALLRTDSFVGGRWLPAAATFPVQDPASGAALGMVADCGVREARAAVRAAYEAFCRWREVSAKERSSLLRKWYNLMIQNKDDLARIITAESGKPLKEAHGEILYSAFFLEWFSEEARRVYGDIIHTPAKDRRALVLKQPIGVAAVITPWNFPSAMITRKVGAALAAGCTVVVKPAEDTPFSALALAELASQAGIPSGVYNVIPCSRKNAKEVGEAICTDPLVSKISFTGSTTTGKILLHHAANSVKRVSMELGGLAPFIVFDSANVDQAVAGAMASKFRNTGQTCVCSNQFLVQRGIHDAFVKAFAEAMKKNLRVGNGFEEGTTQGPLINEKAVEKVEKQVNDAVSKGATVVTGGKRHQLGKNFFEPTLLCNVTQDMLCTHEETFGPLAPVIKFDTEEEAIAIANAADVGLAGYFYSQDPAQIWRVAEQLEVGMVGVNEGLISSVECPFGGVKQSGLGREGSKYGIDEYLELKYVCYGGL
UniProt Q9NQW6: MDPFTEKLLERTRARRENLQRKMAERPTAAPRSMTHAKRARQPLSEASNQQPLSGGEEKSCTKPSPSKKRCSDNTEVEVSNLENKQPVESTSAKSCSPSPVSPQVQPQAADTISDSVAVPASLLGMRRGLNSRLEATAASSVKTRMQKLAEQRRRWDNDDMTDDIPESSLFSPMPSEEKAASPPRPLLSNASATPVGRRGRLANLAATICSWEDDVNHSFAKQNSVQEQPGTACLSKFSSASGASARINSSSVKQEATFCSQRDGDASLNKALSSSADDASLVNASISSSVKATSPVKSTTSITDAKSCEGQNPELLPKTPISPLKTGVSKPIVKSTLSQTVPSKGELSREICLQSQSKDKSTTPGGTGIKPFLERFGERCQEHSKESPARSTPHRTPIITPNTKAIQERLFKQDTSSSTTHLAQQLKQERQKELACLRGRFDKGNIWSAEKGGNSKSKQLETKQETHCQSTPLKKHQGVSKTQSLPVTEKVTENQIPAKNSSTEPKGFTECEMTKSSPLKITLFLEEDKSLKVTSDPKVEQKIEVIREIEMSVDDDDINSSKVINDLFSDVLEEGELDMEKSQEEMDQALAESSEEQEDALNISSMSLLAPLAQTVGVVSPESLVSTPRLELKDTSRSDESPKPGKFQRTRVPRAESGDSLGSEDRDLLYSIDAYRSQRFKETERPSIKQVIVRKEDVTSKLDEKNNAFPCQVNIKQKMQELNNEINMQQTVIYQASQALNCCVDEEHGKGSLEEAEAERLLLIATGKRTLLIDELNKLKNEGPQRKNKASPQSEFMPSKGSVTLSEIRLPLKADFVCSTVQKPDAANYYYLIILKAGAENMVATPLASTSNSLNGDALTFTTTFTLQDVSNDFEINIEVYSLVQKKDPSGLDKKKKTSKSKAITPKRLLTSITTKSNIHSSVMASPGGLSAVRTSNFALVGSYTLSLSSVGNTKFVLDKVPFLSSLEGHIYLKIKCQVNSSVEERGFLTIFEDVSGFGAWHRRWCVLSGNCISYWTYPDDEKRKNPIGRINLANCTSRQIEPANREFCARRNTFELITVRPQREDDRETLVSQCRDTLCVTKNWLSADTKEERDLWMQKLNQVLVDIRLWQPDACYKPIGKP
UniProt Q4KMQ2: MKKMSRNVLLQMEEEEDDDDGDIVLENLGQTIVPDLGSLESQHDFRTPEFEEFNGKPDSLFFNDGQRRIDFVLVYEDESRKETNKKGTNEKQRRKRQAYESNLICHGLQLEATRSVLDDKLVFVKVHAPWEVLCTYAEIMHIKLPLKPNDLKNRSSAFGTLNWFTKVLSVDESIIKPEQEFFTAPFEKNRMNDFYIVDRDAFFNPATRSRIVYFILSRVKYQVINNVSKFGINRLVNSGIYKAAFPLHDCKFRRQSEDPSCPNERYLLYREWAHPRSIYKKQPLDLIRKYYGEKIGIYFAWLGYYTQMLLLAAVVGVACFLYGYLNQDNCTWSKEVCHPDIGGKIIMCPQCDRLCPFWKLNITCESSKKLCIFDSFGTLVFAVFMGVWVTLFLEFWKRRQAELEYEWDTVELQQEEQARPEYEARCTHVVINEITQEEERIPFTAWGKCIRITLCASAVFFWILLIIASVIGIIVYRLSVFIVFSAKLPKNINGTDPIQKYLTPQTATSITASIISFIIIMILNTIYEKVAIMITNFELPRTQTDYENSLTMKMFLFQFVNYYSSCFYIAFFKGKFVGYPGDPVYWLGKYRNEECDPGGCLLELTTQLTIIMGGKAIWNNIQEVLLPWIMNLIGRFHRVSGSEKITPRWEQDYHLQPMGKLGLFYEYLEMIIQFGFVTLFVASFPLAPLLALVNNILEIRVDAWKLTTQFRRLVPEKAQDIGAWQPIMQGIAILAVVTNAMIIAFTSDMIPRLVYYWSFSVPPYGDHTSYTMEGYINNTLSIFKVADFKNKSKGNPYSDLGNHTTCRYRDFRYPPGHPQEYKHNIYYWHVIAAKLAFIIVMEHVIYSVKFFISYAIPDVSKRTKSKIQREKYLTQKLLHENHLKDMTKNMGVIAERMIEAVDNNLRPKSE
UniProt Q9Y6B7: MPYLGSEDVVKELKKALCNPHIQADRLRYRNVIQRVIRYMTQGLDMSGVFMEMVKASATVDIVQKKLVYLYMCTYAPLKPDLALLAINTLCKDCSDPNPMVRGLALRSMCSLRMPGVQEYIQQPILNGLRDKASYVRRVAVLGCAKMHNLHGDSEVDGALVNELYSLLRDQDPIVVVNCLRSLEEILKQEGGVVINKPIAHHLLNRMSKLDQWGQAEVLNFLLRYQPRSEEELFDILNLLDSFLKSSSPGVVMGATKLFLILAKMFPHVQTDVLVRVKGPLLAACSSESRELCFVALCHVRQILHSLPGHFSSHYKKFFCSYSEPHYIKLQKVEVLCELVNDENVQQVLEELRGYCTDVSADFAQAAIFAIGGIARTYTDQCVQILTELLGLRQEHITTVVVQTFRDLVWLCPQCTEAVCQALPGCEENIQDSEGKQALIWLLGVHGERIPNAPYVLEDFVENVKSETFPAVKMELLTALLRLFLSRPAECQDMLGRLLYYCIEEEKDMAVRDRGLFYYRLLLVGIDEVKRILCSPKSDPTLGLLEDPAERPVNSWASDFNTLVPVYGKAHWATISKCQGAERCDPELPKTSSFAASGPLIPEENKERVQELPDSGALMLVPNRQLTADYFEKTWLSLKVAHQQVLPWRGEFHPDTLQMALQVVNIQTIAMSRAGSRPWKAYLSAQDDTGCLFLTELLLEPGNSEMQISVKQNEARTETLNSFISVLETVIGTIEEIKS
UniProt Q96Q83: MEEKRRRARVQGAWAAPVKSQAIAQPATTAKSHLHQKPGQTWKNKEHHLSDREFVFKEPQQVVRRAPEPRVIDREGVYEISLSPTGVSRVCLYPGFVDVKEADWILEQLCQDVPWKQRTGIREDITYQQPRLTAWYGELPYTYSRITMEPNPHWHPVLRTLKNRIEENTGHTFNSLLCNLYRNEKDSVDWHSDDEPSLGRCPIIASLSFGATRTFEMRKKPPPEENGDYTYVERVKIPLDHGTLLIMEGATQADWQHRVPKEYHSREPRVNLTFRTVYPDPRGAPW
UniProt Q6ZTN6: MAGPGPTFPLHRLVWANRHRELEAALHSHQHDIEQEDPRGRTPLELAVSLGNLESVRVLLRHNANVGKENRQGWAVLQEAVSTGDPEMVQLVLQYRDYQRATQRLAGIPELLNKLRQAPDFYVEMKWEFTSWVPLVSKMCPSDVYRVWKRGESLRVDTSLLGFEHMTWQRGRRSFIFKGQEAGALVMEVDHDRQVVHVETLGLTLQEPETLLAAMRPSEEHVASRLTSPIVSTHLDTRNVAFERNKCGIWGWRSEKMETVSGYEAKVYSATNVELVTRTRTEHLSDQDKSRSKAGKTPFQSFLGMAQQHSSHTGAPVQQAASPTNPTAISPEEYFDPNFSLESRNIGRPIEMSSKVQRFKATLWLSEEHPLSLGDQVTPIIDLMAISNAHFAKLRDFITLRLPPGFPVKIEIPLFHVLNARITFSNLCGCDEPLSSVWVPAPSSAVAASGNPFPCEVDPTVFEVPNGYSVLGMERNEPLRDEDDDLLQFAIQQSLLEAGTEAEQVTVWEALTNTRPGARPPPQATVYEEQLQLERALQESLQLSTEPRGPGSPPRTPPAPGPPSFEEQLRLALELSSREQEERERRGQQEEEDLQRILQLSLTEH
UniProt P04083: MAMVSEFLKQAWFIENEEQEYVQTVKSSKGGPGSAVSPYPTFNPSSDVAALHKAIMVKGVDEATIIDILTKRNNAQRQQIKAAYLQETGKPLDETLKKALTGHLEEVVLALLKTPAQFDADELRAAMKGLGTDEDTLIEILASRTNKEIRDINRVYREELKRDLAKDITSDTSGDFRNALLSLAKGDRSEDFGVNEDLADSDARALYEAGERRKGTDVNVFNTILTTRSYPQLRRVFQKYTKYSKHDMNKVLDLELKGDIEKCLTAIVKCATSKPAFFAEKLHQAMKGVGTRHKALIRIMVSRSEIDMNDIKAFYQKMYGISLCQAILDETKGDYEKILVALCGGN

Assays:
Assay in all cases: log2 fold change, soluble protein after heating vs DMSO (PISA); higher = thermal stabilisation; K562 lysate, 10 uM; active = over 0.2 and 3.5 SD of the protein, either way, in both replicates (recomputed)
ibrutinib = compound: C=CC(=O)N1CCC[C@@H](n2nc(-c3ccc(Oc4ccccc4)cc3)c3c(N)ncnc32)C1 [ibrutinib]
How it was run: (§1)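 The values are log-two fold changes in thermal stability compared with solvent controls and come from duplicates. They were obtained by TMTpro 16plex LC-MS/MS, with channel sums equalised, on the supernatant after 21,000xg for 90 min. That supernatant came from crude K562 extract at 1 mg/mL protein treated with 10 μM compound for 30 min, heated for 3 min across 48°C-58°C, pooled and brought to 0.5% NP-40 at 4°C.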

[1] = compound: CC(=O)c1cnc2ccc(-c3cc(Cl)c(O)c(Cl)c3)nc2c1N[C@H]1CC[C@H](CN(C)C)CC1
How it was run: as §1

ralimetinib = compound: CC(C)(C)Cn1c(N)nc2ccc(-c3[nH]c(C(C)(C)C)nc3-c3ccc(F)cc3)nc21 [ralimetinib]
How it was run: as §1

[2] = compound: CC(C)(O)CC(=O)NCCn1ccc2ncnc(Nc3ccc(Oc4cccc(C(F)(F)F)c4)c(Cl)c3)c21
How it was run: as §1

[3] = compound: CC(C)C1=C2N=C(C=C(N2N=C1)NCC3=CC=CC=C3)NCCCCCCN
How it was run: as §1

[4] = compound: CC1=C(C(CC(=O)N1)C2=CC=C(C=C2)C(F)(F)F)C(=O)NC3=C(C=C4C(=C3)C=NN4)F
How it was run: as §1

[5] = compound: CC1=C(C2=C(C=C1)C(=O)C3=CC=CC=C3N2CCCN)C
How it was run: as §1

[6] = compound: CC1=C(C=C(C=C1)NC(=O)C2=CC(=CC=C2)C(C)(C)C#N)NC3=CC4=C(C=C3)N=CN(C4=O)C
How it was run: as §1

[7] = compound: CC1=C(C=C(C=C1)NC(=O)C2=CC(=CC=C2)N(C)C)NC(=O)C3=CC=C(C=C3)O
How it was run: as §1

[8] = compound: CC1=CC=C(C=C1)SC2=C3C=C(SC3=CN=C2)C(=O)N
How it was run: as §1

vemurafenib = compound: CCCS(=O)(=O)Nc1ccc(F)c(C(=O)c2c[nH]c3ncc(-c4ccc(Cl)cc4)cc23)c1F [vemurafenib]
How it was run: as §1

[9] = compound: CCCS(=O)(=O)Nc1ccc(F)c(C(=O)c2c[nH]c3ncc(Cl)cc23)c1F
How it was run: as §1

barasertib = compound: CCN(CCCOc1ccc2c(Nc3cc(CC(=O)Nc4cccc(F)c4)[nH]n3)ncnc2c1)CCOP(=O)(O)O [barasertib]
How it was run: as §1

[10] = compound: CC[C@@H]1C(=O)N(C)c2cnc(Nc3ccc(C(=O)NC4CCN(C)CC4)cc3OC)nc2N1C1CCCC1
How it was run: as §1

volasertib = compound: CC[C@@H]1C(=O)N(C)c2cnc(Nc3ccc(C(=O)N[C@H]4CC[C@H](N5CCN(CC6CC6)CC5)CC4)cc3OC)nc2N1C(C)C [volasertib]
How it was run: as §1

[11] = compound: CCn1c(C(=O)N(C2CC2)C2CC2)cc2c3c(ncn3C)c(Nc3cc(C)n(C)n3)nc21
How it was run: as §1

[12] = compound: CCn1cc(-c2ccnc3[nH]c(-c4cccc(CN(C)C)c4)cc23)c(-c2ccc(NC(=O)N(C)C)cc2)n1
How it was run: as §1

[13] = compound: CN1CCC(CNc2ccc3ncc(-c4cccc(OC(F)(F)F)c4)n3n2)CC1
How it was run: as §1

saracatinib = compound: CN1CCN(CCOc2cc(OC3CCOCC3)c3c(Nc4c(Cl)ccc5c4OCO5)ncnc3c2)CC1 [saracatinib]
How it was run: as §1

sotrastaurin = compound: CN1CCN(c2nc(C3=C(c4c[nH]c5ccccc45)C(=O)NC3=O)c3ccccc3n2)CC1 [sotrastaurin]
How it was run: as §1

Measured: log2 fold change

ANKRD17 (UniProt O75179)
inactive: ibrutinib 0.01 | [1] -0.003 | ralimetinib 0.02 | [2] -0.012 | [3] -0.025 | [4] 0.017 | [5] 0 | [6] -0.152 | [7] 0.018 | [8] 0.007 | vemurafenib 0.021 | [9] 0.025 | barasertib 0.049 | [10] 0.002 | volasertib -0.05 | [11] 0.023 | [12] -0.084 | [13] 0.063 | saracatinib 0.001 | sotrastaurin 0.004

ANKRD54 (UniProt Q6NXT1)
inactive: ibrutinib -0.054 | [1] -0.002 | ralimetinib 0.063 | [2] -0.006 | [3] 0.044 | [4] 0.003 | [5] 0.001 | [6] -0.006 | [7] 0.01 | [8] -0.023 | vemurafenib -0.031 | [9] 0.053 | barasertib -0.026 | [10] 0.021 | volasertib 0.006 | [11] -0.005 | [12] 0.004 | [13] 0.011 | saracatinib -0.004 | sotrastaurin 0.001

AKT2 (UniProt P31751)
inactive: ibrutinib -0.016 | [1] 0.006 | ralimetinib 0.026 | [2] 0.006 | [3] -0.006 | [4] 0.011 | [5] 0.007 | [6] 0.005 | [7] -0.004 | [8] -0.044 | vemurafenib 0.008 | [9] 0 | barasertib -0.026 | [10] -0.024 | volasertib -0.031 | [11] 0.025 | [12] 0.007 | [13] 0.004 | saracatinib -0.011 | sotrastaurin 0.017

AP2A2 isoform 2 (UniProt O94973)
inactive: ibrutinib 0.077 | [1] 0.002 | ralimetinib 0.03 | [2] -0.009 | [3] 0.018 | [4] -0.014 | [5] 0.017 | [6] 0.026 | [7] 0.001 | [8] -0.011 | vemurafenib 0.012 | [9] 0.061 | barasertib 0.104 | [10] 0.011 | volasertib 0.004 | [11] -0.017 | [12] -0.044 | [13] 0.016 | saracatinib -0.022 | sotrastaurin 0.04

Random excerpt: 2 records from the list.
AP2A2 isoform 2 (UniProt O94973)
inactive: ibrutinib 0.077 | [1] 0.002 | ralimetinib 0.03 | [2] -0.009 | [3] 0.018 | [4] -0.014 | [5] 0.017 | [6] 0.026 | [7] 0.001 | [8] -0.011 | vemurafenib 0.012 | [9] 0.061 | barasertib 0.104 | [10] 0.011 | volasertib 0.004 | [11] -0.017 | [12] -0.044 | [13] 0.016 | saracatinib -0.022 | sotrastaurin 0.04

AKT2 (UniProt P31751)
inactive: ibrutinib -0.016 | [1] 0.006 | ralimetinib 0.026 | [2] 0.006 | [3] -0.006 | [4] 0.011 | [5] 0.007 | [6] 0.005 | [7] -0.004 | [8] -0.044 | vemurafenib 0.008 | [9] 0 | barasertib -0.026 | [10] -0.024 | volasertib -0.031 | [11] 0.025 | [12] 0.007 | [13] 0.004 | saracatinib -0.011 | sotrastaurin 0.017

Carrying on:

ANKS1A (UniProt Q92625)
inactive: ibrutinib 0.032 | [1] 0.022 | ralimetinib -0.009 | [2] -0.032 | [3] 0.031 | [4] -0.002 | [5] 0.008 | [6] 0.042 | [7] -0.015 | [8] 0.008 | vemurafenib -0.008 | [9] 0.044 | barasertib 0.067 | [10] -0.088 | volasertib -0.029 | [11] -0.047 | [12] -0.265 | [13] 0.022 | saracatinib 0.031 | sotrastaurin 0.004

ALDH5A1 isoform 2 (UniProt P51649)
inactive: ibrutinib 0.041 | [1] 0.018 | ralimetinib -0.015 | [2] 0.001 | [3] -0.019 | [4] -0.01 | [5] 0.001 | [6] 0.021 | [7] -0.022 | [8] 0.011 | vemurafenib -0.016 | [9] 0.011 | barasertib -0.009 | [10] -0.024 | volasertib -0.001 | [11] 0.031 | [12] 0.004 | [13] 0.008 | saracatinib 0 | sotrastaurin -0.023

ANLN (UniProt Q9NQW6)
inactive: ibrutinib 0.025 | [1] -0.027 | ralimetinib 0.02 | [2] -0.001 | [3] -0.014 | [4] 0.02 | [5] -0.01 | [6] 0.026 | [7] 0.029 | [8] -0.04 | vemurafenib -0.012 | [9] 0.019 | barasertib 0.003 | [10] 0.01 | volasertib -0.014 | [11] -0.035 | [12] -0.067 | [13] -0.014 | saracatinib 0.002 | sotrastaurin 0.009

ANO6 (UniProt Q4KMQ2)
inactive: ibrutinib 0.02 | [1] -0.005 | ralimetinib 0.018 | [2] -0.011 | [3] -0.043 | [4] 0.008 | [5] 0.042 | [6] -0.002 | [7] -0.004 | [8] 0.017 | vemurafenib 0.031 | [9] 0.027 | barasertib 0.023 | [10] -0.011 | volasertib -0.016 | [11] -0.015 | [12] -0.039 | [13] -0.034 | saracatinib 0.025 | sotrastaurin -0.001

ANK3 (UniProt Q12955)
inactive: ibrutinib 0.034 | [1] -0.017 | ralimetinib -0.058 | [2] -0.01 | [3] 0.004 | [4] -0.015 | [5] -0.049 | [6] 0.02 | [7] 0.089 | [8] -0.031 | vemurafenib -0.001 | [9] 0.042 | barasertib -0.035 | [10] -0.032 | volasertib -0.078 | [11] 0.017 | [12] -0.02 | [13] 0.013 | saracatinib 0.018 | sotrastaurin 0.011

AP4E1 (UniProt Q9UPM8)
inactive: ibrutinib -0.037 | [1] -0.056 | ralimetinib 0.038 | [2] -0.013 | [3] 0.038 | [4] 0.035 | [5] 0.006 | [6] -0.007 | [7] 0.016 | [8] -0.049 | vemurafenib -0.039 | [9] 0.047 | barasertib 0.041 | [10] -0.07 | volasertib -0.042 | [11] -0.007 | [12] -0.091 | [13] 0.019 | saracatinib 0.014 | sotrastaurin 0.005

ALDH2 (UniProt P05091)
inactive: ibrutinib -0.001 | [1] 0.081 | ralimetinib 0.002 | [2] -0.012 | [3] 0.199 | [4] -0.013 | [5] 0.014 | [6] -0.081 | [7] 0 | [8] 0.01 | vemurafenib -0.083 | [9] 0.011 | barasertib -0.012 | [10] -0.012 | volasertib -0.017 | [11] -0.011 | [12] 0.007 | [13] -0.009 | saracatinib 0.012 | sotrastaurin 0

AP2M1 (UniProt Q96CW1)
inactive: ibrutinib -0.014 | [1] 0.022 | ralimetinib 0.007 | [2] -0.026 | [3] -0.019 | [4] -0.016 | [5] 0.002 | [6] 0.045 | [7] -0.004 | [8] 0.016 | vemurafenib 0.016 | [9] 0.001 | barasertib 0.019 | [10] -0.009 | volasertib -0.005 | [11] -0.02 | [12] -0.088 | [13] 0.021 | saracatinib -0.028 | sotrastaurin -0.002

AP4B1 (UniProt Q9Y6B7)
inactive: ibrutinib -0.028 | [1] -0.048 | ralimetinib -0.044 | [2] 0 | [3] 0.034 | [4] 0.003 | [5] -0.027 | [6] -0.02 | [7] -0.041 | [8] -0.041 | vemurafenib 0.026 | [9] 0.087 | barasertib 0.028 | [10] -0.01 | volasertib -0.009 | [11] 0.011 | [12] -0.035 | [13] 0.02 | saracatinib 0.042 | sotrastaurin -0.027

ALKBH3 (UniProt Q96Q83)
inactive: ibrutinib 0.042 | [1] 0.012 | ralimetinib -0.078 | [2] -0.031 | [3] -0.042 | [4] 0.044 | [5] -0.031 | [6] -0.045 | [7] 0.014 | [8] 0.023 | vemurafenib 0.004 | [9] 0.079 | barasertib 0.023 | [10] 0.017 | volasertib -0.053 | [11] -0.066 | [12] 0.187 | [13] -0.026 | saracatinib 0.004 | sotrastaurin -0.024

ANKRD13D isoform 3 (UniProt Q6ZTN6)
inactive: ibrutinib 0.054 | [1] 0 | ralimetinib -0.078 | [2] -0.037 | [3] -0.105 | [4] 0.094 | [5] 0.047 | [6] 0.033 | [7] 0.01 | [8] 0.061 | vemurafenib -0.088 | [9] 0.048 | barasertib 0.143 | [10] 0.218 | volasertib -0.069 | [11] 0.173 | [12] 0.056 | [13] 0.062 | saracatinib -0.045 | sotrastaurin -0.01

ANXA1 (UniProt P04083)
inactive: ibrutinib -0.001 | [1] 0.007 | ralimetinib -0.003 | [2] 0.007 | [3] 0.005 | [4] -0.01 | [5] 0.03 | [6] -0.024 | [7] 0.025 | [8] -0.003 | vemurafenib -0.007 | [9] -0.027 | barasertib -0.038 | [10] -0.022 | volasertib -0.011 | [11] 0.008 | [12] 0.028 | [13] 0.049 | saracatinib -0.019 | sotrastaurin 0.017
